Measurements: patent US20260265789A1, “METHOD FOR IMPROVING 2, 4 DIHYDROXYBUTYRIC ACID PRODUCTION AND YIELD” (ADISSEO FRANCE S.A.S, priority 2023, published 2026)
For at least one compound, name, drawing or mass did not settle the structure.

Target: T1, Escherichia coli pyruvate aldolase YfaU (=RhmA, E.C. 4.1.2.53) (Escherichia coli, UniProt P76469)
T1 construct: coupled LdhA/NADH assay
T1 sequence (P76469 1-267): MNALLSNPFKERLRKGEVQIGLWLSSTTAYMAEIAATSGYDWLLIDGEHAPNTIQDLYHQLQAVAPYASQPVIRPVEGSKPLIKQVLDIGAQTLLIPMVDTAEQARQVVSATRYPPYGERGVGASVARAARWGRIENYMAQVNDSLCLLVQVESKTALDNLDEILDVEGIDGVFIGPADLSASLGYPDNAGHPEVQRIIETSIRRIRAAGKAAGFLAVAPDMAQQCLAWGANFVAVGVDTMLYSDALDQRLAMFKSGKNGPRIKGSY
Assay: Kinetic characterization of pyruvate aldolase on OHB (coupled LdhA/NADH assay, 340 nm)
Format: biochemical
Settings: Tris-HCl 50 mM pH 7.5, 5 mM MgCl2, 37° C., 0 to 13 mM OHB

O=C(O)C(=O)CCO [OHB, 2-oxo-4-hydroxybutyrate]
Vmax: 2.1 µmol/min/mg
